Source: the supplement of paper PMC12067093, “Discovery and optimisation of a covalent ligand for TRIM25 and its application to targeted protein ubiquitination” (Chemical Science, 2025)
This is one part of the list.

Chains of the proteins cited; added tags and fusions are not shown. Lines headed by an entry give the natural chain unless they say otherwise; changes in a name come on top.
UniProt Q9BWD1: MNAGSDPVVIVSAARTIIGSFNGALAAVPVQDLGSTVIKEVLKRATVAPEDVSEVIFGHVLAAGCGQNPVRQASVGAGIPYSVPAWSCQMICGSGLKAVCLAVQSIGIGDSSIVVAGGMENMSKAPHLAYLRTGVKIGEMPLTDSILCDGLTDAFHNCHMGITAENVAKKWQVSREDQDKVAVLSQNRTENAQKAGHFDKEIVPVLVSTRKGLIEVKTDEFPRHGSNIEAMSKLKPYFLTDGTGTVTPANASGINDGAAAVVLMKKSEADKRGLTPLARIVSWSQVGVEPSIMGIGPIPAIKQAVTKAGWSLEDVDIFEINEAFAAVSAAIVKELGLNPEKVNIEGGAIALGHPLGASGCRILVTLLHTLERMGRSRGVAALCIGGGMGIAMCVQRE
UniProt Q8N2K0: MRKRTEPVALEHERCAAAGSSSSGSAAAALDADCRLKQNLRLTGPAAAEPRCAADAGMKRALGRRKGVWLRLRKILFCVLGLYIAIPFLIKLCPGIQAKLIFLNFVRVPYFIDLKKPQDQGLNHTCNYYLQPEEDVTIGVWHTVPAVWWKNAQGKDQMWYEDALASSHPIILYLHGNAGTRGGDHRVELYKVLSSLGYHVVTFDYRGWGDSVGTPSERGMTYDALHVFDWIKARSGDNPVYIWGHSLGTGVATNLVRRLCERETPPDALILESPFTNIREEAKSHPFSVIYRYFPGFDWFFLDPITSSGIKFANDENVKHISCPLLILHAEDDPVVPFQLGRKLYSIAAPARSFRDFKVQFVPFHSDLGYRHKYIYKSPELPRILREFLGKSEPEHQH
UniProt Q9BR61: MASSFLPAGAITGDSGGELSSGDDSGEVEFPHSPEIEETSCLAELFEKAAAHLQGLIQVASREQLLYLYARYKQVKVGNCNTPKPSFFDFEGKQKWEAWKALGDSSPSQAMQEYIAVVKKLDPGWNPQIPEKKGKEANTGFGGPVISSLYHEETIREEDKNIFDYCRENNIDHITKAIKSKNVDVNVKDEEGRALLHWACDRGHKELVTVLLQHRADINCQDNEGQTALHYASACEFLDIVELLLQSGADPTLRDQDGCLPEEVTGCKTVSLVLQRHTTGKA
UniProt Q9H845: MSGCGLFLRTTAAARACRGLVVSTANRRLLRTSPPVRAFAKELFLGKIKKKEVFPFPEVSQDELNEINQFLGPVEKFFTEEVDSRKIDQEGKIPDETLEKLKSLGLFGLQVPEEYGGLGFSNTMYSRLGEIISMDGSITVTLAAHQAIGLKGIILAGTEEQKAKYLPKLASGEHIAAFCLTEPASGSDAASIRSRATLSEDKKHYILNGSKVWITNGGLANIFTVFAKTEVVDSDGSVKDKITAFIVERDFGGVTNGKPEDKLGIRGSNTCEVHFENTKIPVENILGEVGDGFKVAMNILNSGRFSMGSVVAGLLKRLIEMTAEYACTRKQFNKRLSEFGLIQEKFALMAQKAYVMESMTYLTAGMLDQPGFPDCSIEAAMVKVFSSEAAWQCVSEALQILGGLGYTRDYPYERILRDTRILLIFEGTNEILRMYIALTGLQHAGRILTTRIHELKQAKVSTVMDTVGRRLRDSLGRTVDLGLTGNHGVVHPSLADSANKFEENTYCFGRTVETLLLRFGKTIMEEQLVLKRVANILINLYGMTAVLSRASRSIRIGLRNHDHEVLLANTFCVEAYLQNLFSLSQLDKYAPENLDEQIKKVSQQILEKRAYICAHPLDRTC
UniProt P21399: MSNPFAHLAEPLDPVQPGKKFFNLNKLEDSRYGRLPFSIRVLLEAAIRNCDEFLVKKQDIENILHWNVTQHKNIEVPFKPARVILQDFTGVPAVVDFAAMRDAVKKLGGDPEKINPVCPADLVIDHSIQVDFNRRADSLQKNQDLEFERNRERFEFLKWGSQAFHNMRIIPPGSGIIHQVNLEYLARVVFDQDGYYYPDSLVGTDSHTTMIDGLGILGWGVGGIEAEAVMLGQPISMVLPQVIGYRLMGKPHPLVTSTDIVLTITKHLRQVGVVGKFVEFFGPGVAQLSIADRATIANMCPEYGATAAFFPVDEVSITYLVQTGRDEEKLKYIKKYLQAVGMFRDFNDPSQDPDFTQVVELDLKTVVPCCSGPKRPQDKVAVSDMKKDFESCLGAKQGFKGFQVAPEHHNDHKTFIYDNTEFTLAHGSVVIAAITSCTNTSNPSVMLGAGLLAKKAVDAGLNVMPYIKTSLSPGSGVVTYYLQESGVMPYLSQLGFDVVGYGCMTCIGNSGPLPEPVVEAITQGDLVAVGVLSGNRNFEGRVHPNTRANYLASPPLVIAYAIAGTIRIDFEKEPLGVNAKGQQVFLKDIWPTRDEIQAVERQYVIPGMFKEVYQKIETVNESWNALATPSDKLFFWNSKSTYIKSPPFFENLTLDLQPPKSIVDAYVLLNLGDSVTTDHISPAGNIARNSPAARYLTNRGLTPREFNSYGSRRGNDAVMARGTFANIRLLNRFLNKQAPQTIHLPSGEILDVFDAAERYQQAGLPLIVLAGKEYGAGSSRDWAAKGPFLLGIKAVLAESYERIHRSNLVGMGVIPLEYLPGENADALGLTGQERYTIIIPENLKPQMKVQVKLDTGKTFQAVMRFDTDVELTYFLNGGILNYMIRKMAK
UniProt P33527: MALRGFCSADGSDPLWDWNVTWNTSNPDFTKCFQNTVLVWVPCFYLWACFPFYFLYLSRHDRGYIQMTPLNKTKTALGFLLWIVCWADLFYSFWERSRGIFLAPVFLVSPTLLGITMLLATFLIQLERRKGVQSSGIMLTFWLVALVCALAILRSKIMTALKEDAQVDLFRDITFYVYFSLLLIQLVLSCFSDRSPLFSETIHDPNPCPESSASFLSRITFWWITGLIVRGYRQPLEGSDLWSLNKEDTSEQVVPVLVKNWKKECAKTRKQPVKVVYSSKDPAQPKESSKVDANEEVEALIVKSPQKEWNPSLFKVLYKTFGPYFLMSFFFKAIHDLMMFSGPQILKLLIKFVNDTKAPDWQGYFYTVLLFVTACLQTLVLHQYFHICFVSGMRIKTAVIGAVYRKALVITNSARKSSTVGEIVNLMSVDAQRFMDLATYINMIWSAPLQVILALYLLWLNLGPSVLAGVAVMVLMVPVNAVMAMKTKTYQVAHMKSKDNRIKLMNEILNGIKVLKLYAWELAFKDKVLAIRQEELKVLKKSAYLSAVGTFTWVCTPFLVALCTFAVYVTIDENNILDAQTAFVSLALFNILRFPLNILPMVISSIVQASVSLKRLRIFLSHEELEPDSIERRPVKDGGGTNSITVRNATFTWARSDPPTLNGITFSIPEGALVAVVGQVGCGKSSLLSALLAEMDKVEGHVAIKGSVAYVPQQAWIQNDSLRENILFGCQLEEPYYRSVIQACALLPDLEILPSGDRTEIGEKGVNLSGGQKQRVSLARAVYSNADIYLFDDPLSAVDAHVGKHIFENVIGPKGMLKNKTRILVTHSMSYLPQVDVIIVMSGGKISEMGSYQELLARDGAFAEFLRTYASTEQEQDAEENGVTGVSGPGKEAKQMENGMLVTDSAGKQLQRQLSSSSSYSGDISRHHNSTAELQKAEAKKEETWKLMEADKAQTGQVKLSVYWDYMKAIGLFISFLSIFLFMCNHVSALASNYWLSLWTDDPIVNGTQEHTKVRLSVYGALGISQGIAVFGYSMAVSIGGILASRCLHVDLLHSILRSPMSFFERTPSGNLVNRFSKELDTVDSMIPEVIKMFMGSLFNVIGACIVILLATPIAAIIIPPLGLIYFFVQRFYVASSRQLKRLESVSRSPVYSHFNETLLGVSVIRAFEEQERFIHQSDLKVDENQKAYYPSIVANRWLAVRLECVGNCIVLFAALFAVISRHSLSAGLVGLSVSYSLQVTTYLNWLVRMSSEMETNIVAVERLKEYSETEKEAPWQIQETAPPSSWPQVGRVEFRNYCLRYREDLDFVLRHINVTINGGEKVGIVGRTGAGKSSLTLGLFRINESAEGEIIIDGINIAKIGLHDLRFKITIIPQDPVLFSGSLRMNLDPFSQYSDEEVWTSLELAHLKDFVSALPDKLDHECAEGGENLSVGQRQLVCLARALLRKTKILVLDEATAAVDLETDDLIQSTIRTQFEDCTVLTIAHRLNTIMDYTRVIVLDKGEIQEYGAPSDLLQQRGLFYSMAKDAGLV
UniProt Q9UKV3: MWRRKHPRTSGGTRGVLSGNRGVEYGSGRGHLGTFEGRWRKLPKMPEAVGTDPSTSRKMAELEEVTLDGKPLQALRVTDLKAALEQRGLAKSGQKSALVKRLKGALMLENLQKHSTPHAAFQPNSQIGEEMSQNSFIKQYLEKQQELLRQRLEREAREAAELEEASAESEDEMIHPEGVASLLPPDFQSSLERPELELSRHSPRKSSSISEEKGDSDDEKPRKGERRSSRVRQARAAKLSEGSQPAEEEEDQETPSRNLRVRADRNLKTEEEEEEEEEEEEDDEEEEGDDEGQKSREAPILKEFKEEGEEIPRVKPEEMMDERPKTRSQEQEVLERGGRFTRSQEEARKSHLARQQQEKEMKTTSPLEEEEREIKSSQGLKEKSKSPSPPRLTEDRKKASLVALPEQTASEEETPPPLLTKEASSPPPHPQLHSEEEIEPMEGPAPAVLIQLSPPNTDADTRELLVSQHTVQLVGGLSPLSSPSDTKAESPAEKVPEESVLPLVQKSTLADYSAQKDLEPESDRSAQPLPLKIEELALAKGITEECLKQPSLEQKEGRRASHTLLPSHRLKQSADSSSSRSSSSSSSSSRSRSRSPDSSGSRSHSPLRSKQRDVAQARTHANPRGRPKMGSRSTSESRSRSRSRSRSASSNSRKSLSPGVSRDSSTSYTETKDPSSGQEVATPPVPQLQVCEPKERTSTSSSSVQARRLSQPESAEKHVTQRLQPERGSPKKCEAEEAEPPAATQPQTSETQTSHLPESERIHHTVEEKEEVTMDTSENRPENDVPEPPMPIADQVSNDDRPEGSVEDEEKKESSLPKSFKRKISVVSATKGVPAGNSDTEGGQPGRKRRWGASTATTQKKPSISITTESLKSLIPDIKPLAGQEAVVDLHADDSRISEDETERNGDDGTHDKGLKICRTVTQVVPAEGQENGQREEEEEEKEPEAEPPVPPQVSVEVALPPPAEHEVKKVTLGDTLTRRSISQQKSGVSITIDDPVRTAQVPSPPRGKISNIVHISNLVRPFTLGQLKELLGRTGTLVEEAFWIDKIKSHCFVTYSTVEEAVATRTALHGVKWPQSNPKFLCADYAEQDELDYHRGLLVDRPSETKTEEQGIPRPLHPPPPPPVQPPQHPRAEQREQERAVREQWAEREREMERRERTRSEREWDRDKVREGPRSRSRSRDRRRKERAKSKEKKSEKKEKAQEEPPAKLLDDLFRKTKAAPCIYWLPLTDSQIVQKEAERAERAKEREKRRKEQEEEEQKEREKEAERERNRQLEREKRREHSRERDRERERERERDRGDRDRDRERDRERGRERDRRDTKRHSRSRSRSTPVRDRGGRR
UniProt P24752: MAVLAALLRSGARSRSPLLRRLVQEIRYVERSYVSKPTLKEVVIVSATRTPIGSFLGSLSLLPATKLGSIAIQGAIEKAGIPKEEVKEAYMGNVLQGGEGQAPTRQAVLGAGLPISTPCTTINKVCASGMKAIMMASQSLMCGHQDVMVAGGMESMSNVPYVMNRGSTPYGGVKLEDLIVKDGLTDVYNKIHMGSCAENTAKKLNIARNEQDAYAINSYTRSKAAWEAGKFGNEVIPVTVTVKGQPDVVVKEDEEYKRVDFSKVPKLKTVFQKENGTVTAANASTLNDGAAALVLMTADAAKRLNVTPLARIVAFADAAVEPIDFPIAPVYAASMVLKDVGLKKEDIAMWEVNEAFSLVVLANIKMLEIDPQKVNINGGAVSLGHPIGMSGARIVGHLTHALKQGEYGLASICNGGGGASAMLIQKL
UniProt Q9H3P7: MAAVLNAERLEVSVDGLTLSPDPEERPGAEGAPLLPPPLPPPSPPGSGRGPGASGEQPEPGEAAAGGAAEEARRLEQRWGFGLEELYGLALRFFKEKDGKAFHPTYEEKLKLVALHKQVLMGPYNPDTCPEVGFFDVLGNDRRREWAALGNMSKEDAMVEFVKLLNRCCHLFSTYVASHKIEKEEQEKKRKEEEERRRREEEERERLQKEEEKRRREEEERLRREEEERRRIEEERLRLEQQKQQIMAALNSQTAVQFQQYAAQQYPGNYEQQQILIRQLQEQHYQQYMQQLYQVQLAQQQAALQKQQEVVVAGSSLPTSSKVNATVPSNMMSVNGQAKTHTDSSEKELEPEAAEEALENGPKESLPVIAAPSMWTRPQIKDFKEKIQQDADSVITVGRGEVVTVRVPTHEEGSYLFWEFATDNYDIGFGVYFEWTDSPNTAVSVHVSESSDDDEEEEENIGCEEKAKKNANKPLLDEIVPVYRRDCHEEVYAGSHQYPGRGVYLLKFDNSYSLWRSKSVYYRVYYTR

Compound: CC1Cc2ccccc2N1C(=O)C1CCCN(C1)C(=O)CCl (mixture of isomers) [TRIM25 ligand 11 (diastereomer mixture)]
Assay: probe-labelled cysteine peptide fold change vs DMSO (competition) (log2 fold change); higher = less target engagement (more negative = stronger competition)
Settings: 10 µM; THP-1; incubation time: 4 h
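Also: competitive chemoproteomic profiling in live THP-1 cells with an iodoacetamide desthiobiotin (IA-DTB) probe, comparing probe-labelled peptide intensities in compound-treated cells against DMSO-treated controls.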

Target	probe-labelled cysteine peptide fold change
ACAT2_Q9BWD1_360_VNIEGGAIALGHPLGASGCR (UniProt Q9BWD1)	0.16
ABHD16A_O95870_248_LVEECNGR (UniProt O95870)	0.0101
ACACA_Q13085_1009_CVFALR (UniProt Q13085)	0.11
ACLY_P53396_20_FICTTSAIQNR (UniProt P53396)	0.0576
ACO2_Q99798_126_VAVPSTIHCDHLIEAQVGGEK (UniProt Q99798)	0.0308
ABHD12_Q8N2K0_323_HISCPLLILHAEDDPVVPFQLGR (UniProt Q8N2K0)	0.285
AARS_P49588_947_NVGCLQEALQLATSFAQLR (UniProt P49588)	0.0047
ACADSB_P45954_385_CIEWMGGVGYTK (UniProt P45954)	0.127
ACBD6_Q9BR61_80_VGNCNTPKPSFFDFEGK (UniProt Q9BR61)	-0.201
ABL2_P42684_415_NCLVGENHVVK (UniProt P42684)	0.0416
ABCF1_Q8NE71_758_VVFAELACR (UniProt Q8NE71)	0.244
ACAD9_Q9H845_271_GSNTCEVHFENTK (UniProt Q9H845)	0.247
ABCE1_P61221_65_CPFGALSIVNLPSNLEK (UniProt P61221)	0.107
AARS_P49588_187_DNFWEMGDTGPCGPCSEIHYDR (UniProt P49588)	-0.134
ACO1_P21399_392_DFESCLGAK (UniProt P21399)	-0.0218
ACAD9_Q9H845_613_RAYICAHPLDR (UniProt Q9H845)	-0.0302
ABCC1_P33527_1479_TQFEDCTVLTIAHR (UniProt P33527)	0.0212
ABR_Q12979_158_EFYDNLCPK (UniProt Q12979)	-0.00352
ACIN1_Q9UKV3_546_GITEECLK (UniProt Q9UKV3)	-0.0875
ACAT1_P24752_196_IHMGSCAENTAK (UniProt P24752)	-0.0775
ABCF1_Q8NE71_655_ICIVGPNGVGK (UniProt Q8NE71)	0.144
ACBD3_Q9H3P7_487_DCHEEVYAGSHQYPGR (UniProt Q9H3P7)	-0.0193

Same assay, conditions: 50 µM; THP-1; incubation time: 4 h

Target	probe-labelled cysteine peptide fold change
ACADSB_P45954_261_ASSTCPLTFENVK (UniProt P45954)	-0.093
AARS_P49588_901_ITCLCQVPQNAANR (UniProt P49588)	0.0741
AARSD1_Q9BTE6_266_CGAEDHVEAVK (UniProt Q9BTE6)	0.0313
ACBD3_Q9H3P7_168_CCHLFSTYVASHK (UniProt Q9H3P7)	-0.0099
ABCC1_P33527_1047_CLHVDLLHSILR (UniProt P33527)	-0.29
AASDHPPT_Q9NRN7_23_WAFSCGTWLPSR (UniProt Q9NRN7)	0.109
AARS_P49588_723_VVSIGVPVSELLDDPSGPAGSLTSVEFCGGTHLR (UniProt P49588)	0.00801
ACO1_P21399_118_INPVCPADLVIDHSIQVDFNR (UniProt P21399)	0.0862
ACACB_O00763_1429_SLREEPIHILNVSIQCADHLEDEALVPILR (UniProt O00763)	-0.0522
ACAP2_Q15057_53_AFCVANK (UniProt Q15057)	0.0818
ACADS_P16219_109_GCASTGVIMSVNNSLYLGPILK (UniProt P16219)	0.216
ACBD5_Q5T8D3_83_QATEGPCK (UniProt Q5T8D3)	0.113
ABCD3_P28288_477_SGANVLICGPNGCGK (UniProt P28288)	0.405
AAAS_Q9NRG9_331_CQTGCWSPDGSR (UniProt Q9NRG9)	0.00241
ABCA1_O95477_215_SEEMIQLGDQEVSELCGLPR (UniProt O95477)	-0.196
ACLY_P53396_519_AVQGMLDFDYVCSRDEPSVAAMVYPFTGDHK (UniProt P53396)	-0.255
ACAT2_Q9BWD1_360_VNIEGGAIALGHPLGASGCR (UniProt Q9BWD1)	0.126
ABHD16A_O95870_248_LVEECNGR (UniProt O95870)	-0.0546
ACACA_Q13085_1009_CVFALR (UniProt Q13085)	0.278

Target	probe-labelled cysteine peptide fold change
ACLY_P53396_20_FICTTSAIQNR (UniProt P53396)	0.0555
ACO2_Q99798_126_VAVPSTIHCDHLIEAQVGGEK (UniProt Q99798)	-0.109
ABHD12_Q8N2K0_323_HISCPLLILHAEDDPVVPFQLGR (UniProt Q8N2K0)	-0.000338
AARS_P49588_947_NVGCLQEALQLATSFAQLR (UniProt P49588)	0.121
ACADSB_P45954_385_CIEWMGGVGYTK (UniProt P45954)	0.154
ACBD6_Q9BR61_80_VGNCNTPKPSFFDFEGK (UniProt Q9BR61)	-0.0535
ABL2_P42684_415_NCLVGENHVVK (UniProt P42684)	0.145
ABCF1_Q8NE71_758_VVFAELACR (UniProt Q8NE71)	0.249
ACAD9_Q9H845_271_GSNTCEVHFENTK (UniProt Q9H845)	0.00981
ABCE1_P61221_65_CPFGALSIVNLPSNLEK (UniProt P61221)	0.155
AARS_P49588_187_DNFWEMGDTGPCGPCSEIHYDR (UniProt P49588)	-0.137
ACO1_P21399_392_DFESCLGAK (UniProt P21399)	0.111
ACAD9_Q9H845_613_RAYICAHPLDR (UniProt Q9H845)	-0.303
ABCC1_P33527_1479_TQFEDCTVLTIAHR (UniProt P33527)	-0.0597
ABR_Q12979_158_EFYDNLCPK (UniProt Q12979)	-0.0104
ACIN1_Q9UKV3_546_GITEECLK (UniProt Q9UKV3)	-0.141
ACAT1_P24752_196_IHMGSCAENTAK (UniProt P24752)	-0.28
ABCF1_Q8NE71_655_ICIVGPNGVGK (UniProt Q8NE71)	0.0955
ACBD3_Q9H3P7_487_DCHEEVYAGSHQYPGR (UniProt Q9H3P7)	0.00597
